# Screening data, single-dose tests

By UniProt entry, the sequences of proteins in these tests, tags left out. Residues count along the entry.
UniProt P9WNZ1, whole entry: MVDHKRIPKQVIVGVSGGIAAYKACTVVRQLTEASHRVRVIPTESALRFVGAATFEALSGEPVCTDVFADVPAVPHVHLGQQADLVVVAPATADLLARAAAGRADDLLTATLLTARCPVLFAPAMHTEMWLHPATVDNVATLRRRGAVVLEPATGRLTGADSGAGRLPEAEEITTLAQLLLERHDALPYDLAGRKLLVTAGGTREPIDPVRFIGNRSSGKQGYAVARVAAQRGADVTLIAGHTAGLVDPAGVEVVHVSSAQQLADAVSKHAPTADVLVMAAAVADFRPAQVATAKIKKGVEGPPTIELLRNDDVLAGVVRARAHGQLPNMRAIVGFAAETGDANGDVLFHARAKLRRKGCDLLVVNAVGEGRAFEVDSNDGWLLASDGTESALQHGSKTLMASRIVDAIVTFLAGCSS
UniProt Q8IDJ8, 1-583: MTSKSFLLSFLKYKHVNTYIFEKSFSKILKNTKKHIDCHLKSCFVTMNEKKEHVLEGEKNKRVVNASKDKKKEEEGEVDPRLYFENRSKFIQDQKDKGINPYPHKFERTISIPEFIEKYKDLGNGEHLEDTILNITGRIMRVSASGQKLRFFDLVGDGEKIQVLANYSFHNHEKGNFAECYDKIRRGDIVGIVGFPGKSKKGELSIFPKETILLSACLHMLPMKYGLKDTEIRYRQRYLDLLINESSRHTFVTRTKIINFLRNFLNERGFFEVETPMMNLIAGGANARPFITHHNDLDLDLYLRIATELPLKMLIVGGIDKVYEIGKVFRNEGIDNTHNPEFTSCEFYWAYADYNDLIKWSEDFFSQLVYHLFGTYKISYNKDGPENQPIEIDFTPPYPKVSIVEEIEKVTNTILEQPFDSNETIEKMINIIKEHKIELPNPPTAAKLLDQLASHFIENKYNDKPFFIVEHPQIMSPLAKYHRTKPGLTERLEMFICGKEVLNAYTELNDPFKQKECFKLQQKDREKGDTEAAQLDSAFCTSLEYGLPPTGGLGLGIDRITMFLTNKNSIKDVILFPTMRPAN
UniProt P9WFT3, whole entry: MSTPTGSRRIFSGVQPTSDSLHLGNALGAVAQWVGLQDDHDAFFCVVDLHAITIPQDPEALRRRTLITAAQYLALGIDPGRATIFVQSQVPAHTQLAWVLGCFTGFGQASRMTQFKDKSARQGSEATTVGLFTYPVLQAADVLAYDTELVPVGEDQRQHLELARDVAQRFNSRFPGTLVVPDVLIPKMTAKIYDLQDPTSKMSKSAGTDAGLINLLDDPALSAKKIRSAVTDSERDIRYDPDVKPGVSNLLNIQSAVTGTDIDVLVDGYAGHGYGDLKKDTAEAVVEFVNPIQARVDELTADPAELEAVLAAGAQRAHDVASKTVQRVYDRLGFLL
UniProt I6X8D2, whole entry: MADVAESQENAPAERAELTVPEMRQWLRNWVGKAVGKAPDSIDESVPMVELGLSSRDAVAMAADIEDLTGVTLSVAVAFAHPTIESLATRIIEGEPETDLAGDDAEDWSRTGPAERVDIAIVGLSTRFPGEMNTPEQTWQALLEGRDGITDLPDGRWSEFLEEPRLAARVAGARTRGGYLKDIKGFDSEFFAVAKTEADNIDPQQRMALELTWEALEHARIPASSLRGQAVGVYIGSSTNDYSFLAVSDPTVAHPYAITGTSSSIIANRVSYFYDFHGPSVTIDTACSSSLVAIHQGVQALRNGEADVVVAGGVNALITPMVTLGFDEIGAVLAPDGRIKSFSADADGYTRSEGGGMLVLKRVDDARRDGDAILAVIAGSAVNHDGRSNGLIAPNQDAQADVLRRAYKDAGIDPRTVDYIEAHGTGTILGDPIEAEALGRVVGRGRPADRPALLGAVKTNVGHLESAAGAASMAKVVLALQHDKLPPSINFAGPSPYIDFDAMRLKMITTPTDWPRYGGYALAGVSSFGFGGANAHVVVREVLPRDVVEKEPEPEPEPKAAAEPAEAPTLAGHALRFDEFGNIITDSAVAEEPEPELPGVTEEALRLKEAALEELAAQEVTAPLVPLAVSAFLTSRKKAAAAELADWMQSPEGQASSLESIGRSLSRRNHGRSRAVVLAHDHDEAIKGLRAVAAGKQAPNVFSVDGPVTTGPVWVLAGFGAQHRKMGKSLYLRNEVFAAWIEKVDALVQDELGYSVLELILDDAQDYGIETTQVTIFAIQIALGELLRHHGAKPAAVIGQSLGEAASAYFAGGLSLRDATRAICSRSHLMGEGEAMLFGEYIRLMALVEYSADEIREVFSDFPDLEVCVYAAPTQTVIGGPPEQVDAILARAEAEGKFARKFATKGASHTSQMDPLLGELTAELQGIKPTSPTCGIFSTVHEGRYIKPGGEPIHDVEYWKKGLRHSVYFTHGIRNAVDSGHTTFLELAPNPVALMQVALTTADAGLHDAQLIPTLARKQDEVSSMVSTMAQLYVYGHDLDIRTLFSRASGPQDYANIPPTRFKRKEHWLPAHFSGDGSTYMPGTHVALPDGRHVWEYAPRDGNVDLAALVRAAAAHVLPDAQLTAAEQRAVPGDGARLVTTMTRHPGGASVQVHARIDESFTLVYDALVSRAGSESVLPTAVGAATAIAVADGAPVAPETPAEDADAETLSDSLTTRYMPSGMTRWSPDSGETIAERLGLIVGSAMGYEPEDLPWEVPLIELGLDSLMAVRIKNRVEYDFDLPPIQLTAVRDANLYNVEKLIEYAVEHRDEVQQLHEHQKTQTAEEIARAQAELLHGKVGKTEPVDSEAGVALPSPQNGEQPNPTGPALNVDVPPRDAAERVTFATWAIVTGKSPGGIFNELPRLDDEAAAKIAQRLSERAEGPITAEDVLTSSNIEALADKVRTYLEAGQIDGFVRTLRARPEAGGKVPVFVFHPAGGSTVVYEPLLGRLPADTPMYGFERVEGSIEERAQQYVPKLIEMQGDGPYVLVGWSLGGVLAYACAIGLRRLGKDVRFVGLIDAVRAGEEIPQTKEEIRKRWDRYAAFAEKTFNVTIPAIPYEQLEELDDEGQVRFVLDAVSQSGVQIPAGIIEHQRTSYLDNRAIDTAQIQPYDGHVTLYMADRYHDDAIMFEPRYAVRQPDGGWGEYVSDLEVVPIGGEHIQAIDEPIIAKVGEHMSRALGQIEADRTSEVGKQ

Data taken from ChEMBL document CHEMBL3988442, “University of Dundee, Small-Polar-MMV Screening Library” (2021).

Values are the deposited “Percent Effect”, in %.
The record does not define 0% and 100%; most values in the screen are far below 50% and negative numbers occur (in some assays of this library far below -100).
The compounds are a random part of those screened.
A dash means the value is not listed here; it may have been measured.

CoaBC: 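Enzyme assay of CoaBC with a phosphate dye (Biomol Green) read at 650 nm. Target: Coenzyme A biosynthesis protein CoaBC, Mycobacterium tuberculosis (UniProt P9WNZ1). Tested at 30 µM. Direction is inferred from only a few compounds that gave an IC50; most scored high, so higher reads as stronger inhibition. Most strong results did not repeat in a second test. Size under these conditions: about 67,000 compounds, about 40 of them at 50% or above in at least one test.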
PfKRS1: 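Lysine-tRNA ligase, Plasmodium falciparum 3D7 (UniProt Q8IDJ8). Enzyme assay of the cytosolic lysyl-tRNA synthetase in 384-well plates, read by luminescence. Compounds at 30 µM. Higher reads as stronger inhibition, judged from the few compounds that gave an IC50. Size under these conditions: about 69,000 compounds, about 49 of them at 50% or above in at least one test.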
Toxoplasma: 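Assay of Toxoplasma gondii numbers, read through their beta-galactosidase reporter with a colour substrate. Concentration: 10 µM. The record gives no direction; the compounds picked for IC50 retests had high values, so higher reads as fewer parasites. Of about 67,000 compounds tested this way, about 260 (0.38%) reached 50% or more in at least one test.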
MtTrpRS: 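Tryptophan-tRNA ligase, Mycobacterium tuberculosis (UniProt P9WFT3). Enzyme assay of tryptophanyl-tRNA synthetase; the read-out is not stated. Compounds at 10 µM. Higher most likely means stronger inhibition; the record gives no direction and few retests gave an IC50. About 65,000 compounds were tested under these conditions; 0.098% (about 64) showed 50% or more at least once.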
Pks13 thioesterase: 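Polyketide synthase Pks13, Mycobacterium tuberculosis (UniProt I6X8D2). Enzyme assay of the thioesterase domain of polyketide synthase 13; the read-out is not stated. Concentration: 30 µM. Higher reads as stronger inhibition (inferred from which compounds were picked for retests). Size under these conditions: about 67,000 compounds, about 300 of them at 50% or above in at least one test.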

Compound	CoaBC	PfKRS1	Toxoplasma	MtTrpRS	Pks13 thioesterase
CCCN1CC2(CCN(c3cc(C4CC4)ncn3)CC2)CC1C(=O)O (centres unmarked)	4.619%	1.857%	1.765%	-2.189%	-21.68%
CCc1nccn1C1CCCN(C(=O)c2c(C)nsc2NC)C1 (centres unmarked)	1.305%	1.71%	-13.62%	-6.019%	-21.33%
O=C(NCCCn1nc2ccccn2c1=O)Nc1ccccc1Cl	-1.513%	3.479%	6.517%	-0.9887%	-0.3709%
O=C(O)c1ccnc(SCC(F)(F)F)c1	5.124%	-0.3242%	1.833%	3.671%	-0.5337%
COc1cccc(C(=O)N2CCOC3(CCCN(C(C)=O)C3)C2)c1 (centres unmarked)	4%	4.142%	-1.642%	-0.9382%	-4.997%
CCOc1ccc(Cl)c(C(=O)NCCS(N)(=O)=O)n1	6.316%	-0.5287%	-12.05%	16.71%	-32.54%
CNC(=O)c1cc2c(nc1N(C)C)CCN(C)CC2.O=C(O)C(F)(F)F.O=C(O)C(F)(F)F	-	-	4.113%	-	-
CCC(NC(=O)COC)c1ccccc1OCC(=O)N1CCCC1 (centres unmarked)	2.368%	0.2476%	5.869%	-6.417%	-19.43%
O=C(NCC1CCOCC1)c1cc(-c2ccncc2)c2cnccc2n1	-6.311%	1.002%	10.37%	-4.581%	-4.068%
c1cncc(C[C@H]2[C@H](N3CCOCC3)CCN2Cc2cccs2)c1	9.677%	7.433%	-	-1.58%	-32.98%
COC(=O)N1CC[C@@]2(C1)[C@H](OC)CN(c1ccccc1)S2(=O)=O	3.148%	1.912%	-39.09%	-	13.21%
O=C(CCc1nc(C2CC2)no1)c1ccc(F)c(F)c1	4.453%	7.243%	2.296%	0.8909%	9.725%
CCOc1ccc(Oc2cc(N)ccn2)cc1	5.145%	-0.5945%	10.01%	1.713%	-14.39%
Cc1ccc2nc(N3CCN(CC(=O)NC(C)C)CC3)cc(C)c2c1	15.33%	3.806%	-0.3291%	-0.1679%	-30.72%
Cc1[nH]ncc1CCCNC(=O)N1CCCC(c2nncn2C)C1 (centres unmarked)	9.797%	-2.614%	10.23%	1.015%	-1.163%
N[C@@H]1CCN(Cc2cccc(N3CCOCC3)c2)C[C@H]1O	-1.707%	1.54%	-21.32%	-3.762%	-6.356%
CCC(=O)N1CCC2(CC1)C(c1cccnc1)CC(=O)N2CCOC (centres unmarked)	-0.2475%	2.921%	-	-	2.591%
FC1(F)CCNCC12CCN(c1cccnc1)C2.O=C(O)C(F)(F)F.O=C(O)C(F)(F)F (centres unmarked)	-	-	-9.013%	-	-
[H][C@@]12CCN(C(=O)Cc3nc4nc(C)cc(C)n4n3)C[C@@]1(CO)CCCN2	-	-	-24.02%	-	-
Nc1nc2c(c(=O)[nH]1)CCN(C(=O)c1ccccc1N1CCCC1)C2	5.584%	8.21%	27.67%	-0.06456%	-18.85%
CN(Cc1ccccn1)C(=O)CNC(=O)N1CCc2ccccc2C1	0.6075%	0.8604%	-	2.251%	-3.517%
COc1cc2ccn(CCS(C)(=O)=O)c(=O)c2cc1F	7.661%	5.52%	3.241%	4.964%	-9.022%
O=C(Cn1ncc(N2CCNCC2)cc1=O)NCCc1ccc(F)cc1	0%	2.707%	-11.58%	5%	-0.7808%
CN1CCc2nc(N(C)C)nc(N3CCC(O)CC3)c2C1	-33.91%	5.595%	-3.072%	-5.893%	-19.14%
CN1CCN(C(=O)N2CCCC(c3nccn3CC3CCC3)C2)CC1 (centres unmarked)	3.418%	4.672%	-9.614%	2.447%	-8.528%
O=C(O)C(F)(F)F.[H][C@@]12CCN(C3CCCCC3)C[C@]1(C(=O)N1CCOCC1)CCO2	-	-	-8.917%	-	-
CCCN1CCCN(C(=O)c2ccc(Oc3cccnc3)cc2)CC1	11.2%	3.498%	0.4536%	-8.497%	-20.92%
CC(C)CN1C[C@@H]2C(=O)NC3(CCN(C(=O)c4cccnc4)CC3)[C@@H]2C1	5.344%	4.772%	-	-1.536%	-27.44%
Cc1cc(N2CCC3(CCC(=O)N(CCO)C3)CC2)nc(N(C)C)n1	-10.66%	5.093%	-6.1%	-1.21%	-35.67%
CCc1ncc2c(n1)CN(CC(=O)Nc1cc(C)on1)CC2	3.133%	-0.503%	1.402%	8.045%	-16.63%
CC[C@H]1CN2CC[C@H]1C[C@@H]2CNC(=O)Nc1cccc(C#N)c1	-10.16%	-0.3547%	-	11.22%	0.7427%
CC(C)C(=O)NC1CCCN(C(=O)c2cc(Cl)ccc2O)C1 (centres unmarked)	-12.3%	-3.733%	-9.948%	16.8%	-9.126%
[H][C@]12CN(c3ccc(C)nn3)CC[C@@]1(O)CCN(S(C)(=O)=O)C2	-	-	4.104%	-	-
Cl.c1cc(CC2CCCNC2)nc(NCCc2cnccn2)c1 (centres unmarked)	-	-	-10.77%	-	-
Cc1cnc(N2CCCC3(CCCN3CC(=O)N(C)C)C2)nc1 (centres unmarked)	-0.813%	8.281%	-	-0.9166%	-3.122%
Cc1nc(C)n(CC2CN(Cc3cccc(C#N)c3)CCO2)n1 (centres unmarked)	-0.3559%	2.962%	17.17%	-1.487%	-3.097%
COc1ccc(NCCC(=O)NCc2cccnc2N(C)C)cc1	4.573%	7.365%	-23.5%	-5.094%	-12.29%
Cc1cccc2nc(C(=O)N3CCCC[C@]4(C)NC(=O)CCC[C@H]34)cn12	3.893%	0.7757%	-	0.7536%	-16.5%
COc1ccc(C(=O)N2CCO[C@H]3[C@H](OCC4CC4)CC[C@@H]32)cc1F	-	-0.1252%	-	-2.913%	-24.53%
CN(C)C1COC2(CCN(Cc3ccc4c(c3)OCO4)CC2)C1.O=C(O)C(F)(F)F.O=C(O)C(F)(F)F (centres unmarked)	-	-	-1.96%	-	-
COc1cc(CNCC(C)O)cc(Cl)c1OCc1ccc(C)cc1.Cl (centres unmarked)	-	-	11.11%	-	-
O=C(NCC1CC1)C1CCCN(c2cccc(C(F)(F)F)n2)C1 (centres unmarked)	0.1209%	5.995%	-1.035%	-6.061%	-19.75%
Cc1cc(N2CCN(Cc3ccnn3C)CC2)cc(C2CCCN2)n1.Cl (centres unmarked)	-	-	-38.68%	-	-
CCCN1C[C@H](NC(=O)c2cc(C)no2)[C@@H](c2ccc(OC)cc2)C1	2.19%	1.79%	-6.253%	0.9855%	5.887%
CCOC(=O)NC1CCCN(Cc2ccc(-n3cncn3)c(C)c2)C1 (centres unmarked)	-3.212%	5.493%	-0.8974%	-1.421%	-37.64%
Cn1cnnc1S(=O)(=O)C1CCN(S(=O)(=O)c2ccc(Cl)s2)CC1	-0.5089%	2.65%	-4.442%	0.719%	-2.182%
Cc1ccccc1NC(=O)N1CC[C@@H]2CN(CC(C)C)S(=O)(=O)[C@@H]2CC1	1.272%	2.96%	-	5.255%	-22.17%
CCc1cc(C(=O)N[C@@H]2CC[C@@H](N3CCOCC3)[C@@H]2O)no1	-6.503%	1.059%	15.77%	-5.499%	11.91%
Cc1cc(NC(=O)CN2CCN(c3nc(C)cs3)C(C)C2)on1 (centres unmarked)	0.3736%	1.733%	9.519%	-0.1935%	-17.99%
Cc1cccc(C2(O)CCN(C(=O)c3ccc(N(C)C)cc3)CC2)c1C	-1.709%	-3.432%	-10.58%	11.63%	39.66%
N#CC(NC(=O)CCCOc1cccnc1)c1ccccc1Cl (centres unmarked)	1.684%	2.44%	-6.352%	3.226%	-10.33%
Cc1cnc(-c2nc(O)c3c(n2)CN(C(=O)CC2CCCC2)CC3)cn1	5.828%	1.419%	5.426%	-2.264%	5.017%
CN1CCOC(CNC(=O)CCc2cc(F)ccc2F)C1 (centres unmarked)	-1.238%	-0.1454%	-15.19%	0.4841%	-10.37%
c1cncc(OCC2CC3(CCN(CC4CC4)CC3)CO2)c1 (centres unmarked)	6.721%	3.194%	-	-3.066%	-13.35%
COc1ccc(Oc2cc(CN)ccn2)cc1	2.635%	-0.6989%	-4.738%	-0.6121%	14.85%
NC(=O)C(NC(=O)c1cc(Cl)c[nH]1)c1ccccc1 (centres unmarked)	2.893%	2.131%	-3.604%	-2.918%	-31.25%
COCCN(CCOC)C(=O)c1cnn(C)c1-n1c(C)ccc1C	9.344%	4.809%	-13.44%	-2.234%	-15.62%
N#Cc1ccc(OC2CCN(C(=O)Cc3cccs3)CC2)nc1	3.121%	-1.124%	11.36%	1.407%	-6.259%
Cc1ccc(C2CCCN2S(=O)(=O)N(C)CCc2ccccn2)o1 (centres unmarked)	3.113%	1.341%	16.91%	2.129%	-23.04%
CCc1nc(CN2CCN(C(=O)c3cncnc3CC)CC2)cs1	0.8717%	0.5428%	25.61%	-0.2903%	-4.707%

3 of the entries, repeated:

- COCCN(CCOC)C(=O)c1cnn(C)c1-n1c(C)ccc1C : CoaBC: 9.344%; PfKRS1: 4.809%; Toxoplasma: -13.44%; MtTrpRS: -2.234%; Pks13 thioesterase: -15.62%
- CCCN1C[C@H](NC(=O)c2cc(C)no2)[C@@H](c2ccc(OC)cc2)C1 : CoaBC: 2.19%; PfKRS1: 1.79%; Toxoplasma: -6.253%; MtTrpRS: 0.9855%; Pks13 thioesterase: 5.887%
- O=C(NCC1CC1)C1CCCN(c2cccc(C(F)(F)F)n2)C1 (centres unmarked) : CoaBC: 0.1209%; PfKRS1: 5.995%; Toxoplasma: -1.035%; MtTrpRS: -6.061%; Pks13 thioesterase: -19.75%